# ± gives the standard deviation of the averaged measurements. The list shows a part of the results. Many values rest on one well or one pass, so single values are uncertain.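 The assay uses a mixed pool of 41 HAP1 clones in which 61 cancer-associated proteins bear intron-inserted fluorescent tags, and clones are distinguished by image pattern. Results are compared against DMSO-treated control wells, and the BRD4 degrader dBET6 is the positive control.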
# Biological target: BRD4 (intron 10 mScarlet tag, HAP1) (UniProt O60885)
# Experiment: BRD4 median nuclear fluorescence intensity change vs DMSO (log2 fold change); higher = more BRD4 protein
# Details: 6 h
row,SMILES,BRD4 median nuclear fluorescence intensity change (log2)
1,O=C(O)P(=O)(O)O [foscarnet] (10 µM),0.0245
2,CC(C)C[C@H](NC(=O)[C@H](CCc1ccccc1)NC(=O)CN1CCOCC1)C(=O)N[C@@H](Cc1ccccc1)C(=O)N[C@@H](CC(C)C)C(=O)[C@@]1(C)CO1 [carfilzomib] (0.00117 µM),-0.00653 ± 0.038
3,O=[N+]([O-])c1cnc(CO)n1CCO [hydroxymetronidazole] (10 µM),-0.00384
4,Nc1nc2ccc(OC(F)(F)F)cc2s1 [riluzole] (10.0074 µM),0.046
5,COc1cc(Nc2ncc3c(n2)-c2ccc(Cl)cc2C(c2c(F)cccc2OC)=NC3)ccc1C(=O)O [alisertib] (10 µM),0.0599
6,CC(=O)NCCCS(=O)(=O)O [acamprosate] (22.0736 µM),0.0556
7,Cc1nc2n(c(=O)c1CCN1CCC(c3noc4cc(F)ccc34)CC1)CCCC2 [risperidone] (10.00083684 µM),-0.00601
8,CCNC(=O)[C@@H]1CCCN1C(=O)[C@H](CCCNC(=N)N)NC(=O)[C@H](CC(C)C)NC(=O)[C@@H](CC(C)C)NC(=O)[C@H](Cc1ccc(O)cc1)NC(=O)[C@H](CO)NC(=O)[C@H](Cc1c[nH]c2ccccc12)NC(=O)[C@H](Cc1c[nH]cn1)NC(=O)[C@@H]1CCC(=O)N1 [leuprolide] (20 µM),-0.0111
9,O=C1Nc2ccc(Cl)cc2[C@@](C#CC2CC2)(C(F)(F)F)O1 [efavirenz] (10 µM),-0.0686
10,C=C(c1ccc(C(=O)O)cc1)c1cc2c(cc1C)C(C)(C)CCC2(C)C [bexarotene] (20 µM),0.16
11,Cc1cc(C)cc(OCC2CNC(=O)O2)c1 (centres undefined) [metaxalone] (10 µM),0.0772
12,COC(=O)[C@H](c1ccccc1Cl)N1CCc2sccc2C1 [clopidogrel] (9.99986 µM),0.0785
13,Cc1cn(-c2cc(NC(=O)c3ccc(C)c(Nc4nccc(-c5cccnc5)n4)c3)cc(C(F)(F)F)c2)cn1 [nilotinib] (20 µM),0.197
14,NN1CCOC1=O [3-amino-2-oxazolidinone] (5.429755364 µM),0.0776
15,CCN(CC)C(=S)SSC(=S)N(CC)CC [disulfiram] (10.03611718 µM),0.0751
16,NCCC(O)(P(=O)(O)O)P(=O)(O)O [pamidronic acid] (10 µM),-0.0135
17,O=C1CC2(CCCC2)C(O)C(=O)N1CCCCN1CCN(c2ncccn2)CC1 (centres undefined) [6-hydroxybuspirone] (10 µM),0.184
18,CC(C)NC(=N)NC(=N)Nc1ccc(Cl)cc1 [proguanil] (9.99926 µM),0.0234
19,C1CNCCN1 [piperazine hexahydrate] (10.008 µM),0.0872
20,COCc1c(C(C)C)nc(C(C)C)c(/C=C/[C@@H](O)C[C@@H](O)CC(=O)O)c1-c1ccc(F)cc1 [cerivastatin] (10.5 µM),0.223

# 3 entries out of the list, ordered by number of heavy atoms, largest number first.
row,SMILES,BRD4 median nuclear fluorescence intensity change (log2)
11,Cc1cc(C)cc(OCC2CNC(=O)O2)c1 (centres undefined) [metaxalone] (10 µM),0.0772
6,CC(=O)NCCCS(=O)(=O)O [acamprosate] (22.0736 µM),0.0556
19,C1CNCCN1 [piperazine hexahydrate] (10.008 µM),0.0872

# Following part

row,SMILES,BRD4 median nuclear fluorescence intensity change (log2)
1,CCC(CC)O[C@@H]1C=C(C(=O)O)C[C@H](N)[C@H]1NC(C)=O [oseltamivir acid] (10 µM),0.146
2,Nc1nc(N)c2nc(CNc3ccc(C(=O)N[C@@H](CCC(=O)O)C(=O)O)cc3)cnc2n1 [aminopterin] (20 µM),0.067
3,Cc1[nH]c2ccccc2c1CCNCc1ccc(/C=C/C(=O)NO)cc1 [panobinostat] (20 µM),0.00289
4,CCN(CC)CCCC(C)Nc1ccnc2cc(Cl)ccc12 (centres undefined) [chloroquine] (9.99975 µM),0.151
5,O=C(O)C(=O)O.[NH-][C@@H]1CCCC[C@H]1[NH-].[Pt+2] [oxaliplatin] (20 µM),-0.0146
6,NC(=O)OCC(COC(N)=O)c1ccccc1 [felbamate] (10 µM),-0.025
7,N=C(N)c1ccc(OCCCCCOc2ccc(C(=N)N)cc2)cc1 [pentamidine] (10.00031669 µM),0.00632
8,CNC(=O)c1ccccc1Sc1ccc2c(/C=C/c3ccccn3)n[nH]c2c1 [axitinib] (20 µM),-0.0357
9,CNC1(C)C2CCC(C2)C1(C)C (centres undefined) [mecamylamine] (12.2 µM),0.0335
10,Cn1c(=O)c2nc[nH]c2n(C)c1=O [theophylline] (10 µM),-0.0499
11,C[C@@H](NCCCc1cccc(C(F)(F)F)c1)c1cccc2ccccc12 [cinacalcet] (10 µM),0.0614
12,CO[C@H]1C[C@@H]2CC[C@@H](C)[C@@](O)(O2)C(=O)C(=O)N2CCCC[C@H]2C(=O)O[C@H]([C@H](C)C[C@@H]2CC[C@@H](O)[C@H](OC)C2)CC(=O)[C@H](C)/C=C(\C)[C@@H](O)[C@@H](OC)C(=O)[C@H](C)C[C@H](C)/C=C/C=C/C=C/1C [rapamycin] (10 µM),0.101
13,CC(C)CN(C[C@@H](O)[C@H](Cc1ccccc1)NC(=O)O[C@H]1CCOC1)S(=O)(=O)c1ccc(N)cc1 [amprenavir] (10 µM),0.0923
14,CCCc1nc(C(C)(C)O)c(C(=O)OCc2oc(=O)oc2C)n1Cc1ccc(-c2ccccc2-c2nnn[nH]2)cc1 [olmesartan medoxomil] (10.00003285 µM),0.054
15,NNC(=O)c1ccncc1 [isoniazid] (10 µM),0.0232
16,CC(C)(C)C(=O)OCC(=O)[C@H]1CC[C@H]2[C@@H]3CCC4=CC(=O)CC[C@]4(C)[C@H]3CC[C@]12C [desoxycorticosterone pivalate] (10.0000892 µM),0.101
17,COc1ccccc1OCC(O)CN1CCN(CC(=O)Nc2c(C)cccc2C)CC1 (centres undefined) [ranolazine] (10 µM),0.03
18,COc1cc(N)c(Cl)cc1C(=O)NC1CCN(CCCOc2ccc(F)cc2)CC1OC (centres undefined) [cisapride] (10.00071305 µM),0.0221
19,C[C@H](N)C(=O)O.N[C@@H](Cc1ccc(O)cc1)C(=O)O [glatiramer acetate] (10 µM),0.207

# Reference: the supplement of paper PMC11098740
